Assay results published in article PMC12435843.
These are yes or no findings as the source states them, for the method shown. Binding seen in cells or lysates may run through a third protein. Some entries that bind do so weakly or less than the wild type.

Amino acid sequences for entries named in this document (tags omitted).
UniProt Q01147: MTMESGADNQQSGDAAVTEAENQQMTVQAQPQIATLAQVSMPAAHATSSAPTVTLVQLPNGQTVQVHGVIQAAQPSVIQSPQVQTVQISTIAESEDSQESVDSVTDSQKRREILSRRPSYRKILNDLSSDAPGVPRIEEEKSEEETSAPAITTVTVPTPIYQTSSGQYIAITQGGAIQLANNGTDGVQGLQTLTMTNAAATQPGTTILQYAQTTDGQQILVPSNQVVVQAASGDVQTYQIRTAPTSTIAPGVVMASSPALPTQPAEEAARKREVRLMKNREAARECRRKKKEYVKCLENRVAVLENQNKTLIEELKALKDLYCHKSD

Molecular target: T1, CREB-regulated transcription coactivator 2 (mouse (endogenous in mouse liver)) (UniProt Q3U182)
T1 sequence: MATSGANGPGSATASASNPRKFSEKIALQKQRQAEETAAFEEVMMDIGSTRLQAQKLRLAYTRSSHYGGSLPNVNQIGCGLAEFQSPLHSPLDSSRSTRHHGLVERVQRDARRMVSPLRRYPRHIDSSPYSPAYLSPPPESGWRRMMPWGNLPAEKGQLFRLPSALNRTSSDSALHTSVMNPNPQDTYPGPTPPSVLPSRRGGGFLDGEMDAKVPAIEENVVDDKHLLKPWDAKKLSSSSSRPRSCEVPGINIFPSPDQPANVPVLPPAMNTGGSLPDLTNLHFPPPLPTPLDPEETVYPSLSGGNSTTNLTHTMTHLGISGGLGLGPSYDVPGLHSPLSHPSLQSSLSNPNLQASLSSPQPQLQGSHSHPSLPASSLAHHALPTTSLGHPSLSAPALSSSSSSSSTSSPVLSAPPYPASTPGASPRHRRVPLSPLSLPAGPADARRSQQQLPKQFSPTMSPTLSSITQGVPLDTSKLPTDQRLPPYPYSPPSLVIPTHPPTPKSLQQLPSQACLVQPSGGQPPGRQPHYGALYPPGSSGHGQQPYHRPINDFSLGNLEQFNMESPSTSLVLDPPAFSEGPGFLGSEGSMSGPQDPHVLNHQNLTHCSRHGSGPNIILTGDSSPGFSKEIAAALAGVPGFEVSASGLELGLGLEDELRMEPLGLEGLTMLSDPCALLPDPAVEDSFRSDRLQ
Test: co-IP; mouse liver tissue, mice fasted 6 hours before sacrifice; mice injected with Ctrl (pAdV5), hGULL or mGULL adenoviruses (Figure 3C), or obese mice injected with tri-GalNAc-NC, tri-GalNAc-hGULF or tri-GalNAc-mGULF RNA oligos (Figure 7B); which protein was precipitated is not told

binding: binds
Substance: CREB (from UniProt Q01147 1-327)
